Assay results published in paper PMC7819943, “Rice protein-binding microarrays: a tool to detect cis-acting elements near promoter regions in rice”.
This is one part of the list.

molecular target: T1, OsSMF1 (Oryza sativa, UniProt Q6ZLB0 1-436); test: protein-binding microarray (RPBM); PBS, 2% BSA, 51.3 ng/ul salmon testes DNA, 50 uM zinc acetate, 200 nM TF, 25 C, 1 h; high values mean tight binding; conditions: protein: recombinant; tags: N-terminal polyhistidine and DsRed monomer fusion (pET32a); chain copies: 2; label: CyDye5-dUTP incorporated in the synthesized complementary strand; 3' TTTTT single-stranded linker to array surface; dsDNA, one strand shown
T1 sequence: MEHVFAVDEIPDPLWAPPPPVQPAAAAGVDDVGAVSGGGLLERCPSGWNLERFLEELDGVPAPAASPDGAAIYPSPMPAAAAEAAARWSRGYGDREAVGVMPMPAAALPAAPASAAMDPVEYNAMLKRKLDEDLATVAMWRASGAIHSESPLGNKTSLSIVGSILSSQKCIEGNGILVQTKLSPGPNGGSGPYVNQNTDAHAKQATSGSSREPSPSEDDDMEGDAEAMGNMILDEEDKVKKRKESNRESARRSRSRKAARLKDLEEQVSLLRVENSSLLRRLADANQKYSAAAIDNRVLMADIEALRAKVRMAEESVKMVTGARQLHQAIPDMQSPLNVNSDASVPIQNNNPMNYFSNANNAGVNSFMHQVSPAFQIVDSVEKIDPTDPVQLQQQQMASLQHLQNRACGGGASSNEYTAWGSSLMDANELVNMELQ
How it was run: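 The binding signal is fluorescence intensity per feature, in arbitrary units, read on an Axon 4000B scanner. Polyhistidine- and DsRed-tagged transcription factors (N-terminal fusions) from E. coli BL21-CodonPlus were purified on Ni–NTA and applied at 200 nM for 1 h at 25 °C to a double-stranded, BSA-blocked custom Agilent array in buffer with 50 µM zinc acetate.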

Sequence	binding signal
CCCTCGCAACGTGCTTTTCGCCAGCGAGTGGTGTAATTTTCGGAGTCACCTAGTGCAG	31600 fluorescence intensity (a.u.)
AGCCAAAGCATTTGCCATCCGATGAGGGCGTACTATTAAACGGAGTCACCTAGTGCAG	28000 fluorescence intensity (a.u.)
ATCAGTTTGTCAGTTCTTAAATGACGAGTATTGCATCATGCGGAGTCACCTAGTGCAG	4600 fluorescence intensity (a.u.)
TCTGAACTGTTTGTTCAGAAGCGTCATAACTCATAAATTACGGAGTCACCTAGTGCAG	36900 fluorescence intensity (a.u.)
CAGGCAACGCAACGCCAAGAAGGGAAGGGGTCAGGTTCAACGGAGTCACCTAGTGCAG	3440 fluorescence intensity (a.u.)
CTGGATCCAGCCAGTGCAACCTCAGCCCGCTAAGCCACGTCGGAGTCACCTAGTGCAG	5720 fluorescence intensity (a.u.)
ACCCGTAACTCGTGGATCCCATGTCAGCTACCCACGTTTTCGGAGTCACCTAGTGCAG	3770 fluorescence intensity (a.u.)
TTCCACCGTGACGTTGATGAGTGGGTCCCGTCGTGATGCCCGGAGTCACCTAGTGCAG	4720 fluorescence intensity (a.u.)
GTGACGGCGAGCCGTCCGTGTCCGTCACACGCCCATCACGCGGAGTCACCTAGTGCAG	4400 fluorescence intensity (a.u.)
AGGACTGCAGCGGTTGAAGGGGTGGTGACTGACTGGTCGGCGGAGTCACCTAGTGCAG	3510 fluorescence intensity (a.u.)
CTAACACGTCACACAATTACGTCATGTTCGCGTCGCCGAACGGAGTCACCTAGTGCAG	19600 fluorescence intensity (a.u.)
GGATGACAACGCACACACTGTTAGGCCTCCTTTGGAACACCGGAGTCACCTAGTGCAG	5950 fluorescence intensity (a.u.)
CATTTTCCACATTCATATTGATGTTAATGATATAAATATGCGGAGTCACCTAGTGCAG	33700 fluorescence intensity (a.u.)
GCATAATCATGCAGTGGCAAGTGTATGGGGTCTGATTGCTCGGAGTCACCTAGTGCAG	3210 fluorescence intensity (a.u.)
AGTGTGTGCGTGCCCATGATTTTGTCGCGGCTTTGCTAACCGGAGTCACCTAGTGCAG	4190 fluorescence intensity (a.u.)
ATTTGTTCAACCAGGAATGTAATCCTTTGTTCAGTCATTACGGAGTCACCTAGTGCAG	5000 fluorescence intensity (a.u.)
TATCATTAAAATTTTCTTGACCAAAATACCCTCTTCTCCTCGGAGTCACCTAGTGCAG	3180 fluorescence intensity (a.u.)
TATTTATATTGTCGACGTTTGATGTCGCGATTCCGGTATTCGGAGTCACCTAGTGCAG	3470 fluorescence intensity (a.u.)
GTGCTCGAGGGGCTCGTCGACGTCAACGCGCCGCCGATGCCGGAGTCACCTAGTGCAG	3810 fluorescence intensity (a.u.)
GCCCGCGCCCGAACGCCACGCCAAGCTCAGGATCATTTCGCGGAGTCACCTAGTGCAG	4820 fluorescence intensity (a.u.)
TTCTCGCAACGCCGTTGCTGATGATGATTCAGCCGAACGGCGGAGTCACCTAGTGCAG	3480 fluorescence intensity (a.u.)

Looked up one by one from above:
Sequence	binding signal
AGTGTGTGCGTGCCCATGATTTTGTCGCGGCTTTGCTAACCGGAGTCACCTAGTGCAG	4190 fluorescence intensity (a.u.)
ATTTGTTCAACCAGGAATGTAATCCTTTGTTCAGTCATTACGGAGTCACCTAGTGCAG	5000 fluorescence intensity (a.u.)
TATCATTAAAATTTTCTTGACCAAAATACCCTCTTCTCCTCGGAGTCACCTAGTGCAG	3180 fluorescence intensity (a.u.)
CATTTTCCACATTCATATTGATGTTAATGATATAAATATGCGGAGTCACCTAGTGCAG	33700 fluorescence intensity (a.u.)

The list goes on.

Sequence	binding signal
CCATGTTCAGGATCACGTCAATGCGCCGCCGTTGTCGCTGCGGAGTCACCTAGTGCAG	3600 fluorescence intensity (a.u.)
TGTTTGTCGTGACTTAGCTTAGTTGTTGCTGTTGTTGAGCCGGAGTCACCTAGTGCAG	3400 fluorescence intensity (a.u.)
TGGTAAGGTTGAAAATGGCATCAAAGTGAACAGGCCCTCACGGAGTCACCTAGTGCAG	22200 fluorescence intensity (a.u.)
GCTCACCATCGTCACACTGGCTCACTGCTGCATTCCGCATCGGAGTCACCTAGTGCAG	3400 fluorescence intensity (a.u.)
TGCTCGCCACGCGCGTCCACGTTCCACGTTTGAAGGCATTCGGAGTCACCTAGTGCAG	3580 fluorescence intensity (a.u.)
CGAACTTCACGCCGCCGTGACGCCGTGTCGACTCATCCGACGGAGTCACCTAGTGCAG	5860 fluorescence intensity (a.u.)
TGATCACTAGCACAGTGGTTGTTGCGTCATTATGCGATAACGGAGTCACCTAGTGCAG	8420 fluorescence intensity (a.u.)
AAAATGGAGAGAAGAGGAAGGGACAGATGACGTGGCATCCCGGAGTCACCTAGTGCAG	48900 fluorescence intensity (a.u.)
ATCGCGCTGCCACCTCCGCATCGCGCTGTCACCATCGTCGCGGAGTCACCTAGTGCAG	7200 fluorescence intensity (a.u.)
GATCCGTGCATCTACACGTGGCGTAATCTCGTTAGCCCCACGGAGTCACCTAGTGCAG	17800 fluorescence intensity (a.u.)
TATTGCATGATAGTTCTGGAAATATGAATGATTAAAATTCCGGAGTCACCTAGTGCAG	19000 fluorescence intensity (a.u.)
AGGTGGAAGTTTGCAATTGCAACACACCACGCCACACAAGCGGAGTCACCTAGTGCAG	4440 fluorescence intensity (a.u.)
GGCCCGCAATCCGTCCGCGCTTTCCGGCCGCGTCCCCTTCCGGAGTCACCTAGTGCAG	3300 fluorescence intensity (a.u.)
TAAATGTTCGTGTGGCATGCCACATCAGCACCACGTAGGACGGAGTCACCTAGTGCAG	21400 fluorescence intensity (a.u.)
GCAAAGCTGACCTTGCATTGCATTGCCCACAGCTCAACCACGGAGTCACCTAGTGCAG	3680 fluorescence intensity (a.u.)
AGAATCAACATATAGCCATGTGACGAATGCCATGACGTCACGGAGTCACCTAGTGCAG	9780 fluorescence intensity (a.u.)
AAGATATCATCGATGACATAGCAACTCATGCATCATATCACGGAGTCACCTAGTGCAG	4590 fluorescence intensity (a.u.)
AGAATTCCGTGATACGCGCATACGCGTCGACAAGAGAAATCGGAGTCACCTAGTGCAG	3280 fluorescence intensity (a.u.)
CCCCTAAAACATGATGAGTGACTTGTTTGAGCATTTTATACGGAGTCACCTAGTGCAG	4600 fluorescence intensity (a.u.)
CCGGATCTTCAGCAGAGTCGTGTCACCTGTTTTGATCGTTCGGAGTCACCTAGTGCAG	3890 fluorescence intensity (a.u.)
GTTTTGACCCCGGTTTTGTCCCACGTGGCGGCTGAGTCAGCGGAGTCACCTAGTGCAG	30400 fluorescence intensity (a.u.)
